The values below come from PMC12109396.

The chains behind the UniProt entries cited, without tags or fusion partners.
UniProt Q12923: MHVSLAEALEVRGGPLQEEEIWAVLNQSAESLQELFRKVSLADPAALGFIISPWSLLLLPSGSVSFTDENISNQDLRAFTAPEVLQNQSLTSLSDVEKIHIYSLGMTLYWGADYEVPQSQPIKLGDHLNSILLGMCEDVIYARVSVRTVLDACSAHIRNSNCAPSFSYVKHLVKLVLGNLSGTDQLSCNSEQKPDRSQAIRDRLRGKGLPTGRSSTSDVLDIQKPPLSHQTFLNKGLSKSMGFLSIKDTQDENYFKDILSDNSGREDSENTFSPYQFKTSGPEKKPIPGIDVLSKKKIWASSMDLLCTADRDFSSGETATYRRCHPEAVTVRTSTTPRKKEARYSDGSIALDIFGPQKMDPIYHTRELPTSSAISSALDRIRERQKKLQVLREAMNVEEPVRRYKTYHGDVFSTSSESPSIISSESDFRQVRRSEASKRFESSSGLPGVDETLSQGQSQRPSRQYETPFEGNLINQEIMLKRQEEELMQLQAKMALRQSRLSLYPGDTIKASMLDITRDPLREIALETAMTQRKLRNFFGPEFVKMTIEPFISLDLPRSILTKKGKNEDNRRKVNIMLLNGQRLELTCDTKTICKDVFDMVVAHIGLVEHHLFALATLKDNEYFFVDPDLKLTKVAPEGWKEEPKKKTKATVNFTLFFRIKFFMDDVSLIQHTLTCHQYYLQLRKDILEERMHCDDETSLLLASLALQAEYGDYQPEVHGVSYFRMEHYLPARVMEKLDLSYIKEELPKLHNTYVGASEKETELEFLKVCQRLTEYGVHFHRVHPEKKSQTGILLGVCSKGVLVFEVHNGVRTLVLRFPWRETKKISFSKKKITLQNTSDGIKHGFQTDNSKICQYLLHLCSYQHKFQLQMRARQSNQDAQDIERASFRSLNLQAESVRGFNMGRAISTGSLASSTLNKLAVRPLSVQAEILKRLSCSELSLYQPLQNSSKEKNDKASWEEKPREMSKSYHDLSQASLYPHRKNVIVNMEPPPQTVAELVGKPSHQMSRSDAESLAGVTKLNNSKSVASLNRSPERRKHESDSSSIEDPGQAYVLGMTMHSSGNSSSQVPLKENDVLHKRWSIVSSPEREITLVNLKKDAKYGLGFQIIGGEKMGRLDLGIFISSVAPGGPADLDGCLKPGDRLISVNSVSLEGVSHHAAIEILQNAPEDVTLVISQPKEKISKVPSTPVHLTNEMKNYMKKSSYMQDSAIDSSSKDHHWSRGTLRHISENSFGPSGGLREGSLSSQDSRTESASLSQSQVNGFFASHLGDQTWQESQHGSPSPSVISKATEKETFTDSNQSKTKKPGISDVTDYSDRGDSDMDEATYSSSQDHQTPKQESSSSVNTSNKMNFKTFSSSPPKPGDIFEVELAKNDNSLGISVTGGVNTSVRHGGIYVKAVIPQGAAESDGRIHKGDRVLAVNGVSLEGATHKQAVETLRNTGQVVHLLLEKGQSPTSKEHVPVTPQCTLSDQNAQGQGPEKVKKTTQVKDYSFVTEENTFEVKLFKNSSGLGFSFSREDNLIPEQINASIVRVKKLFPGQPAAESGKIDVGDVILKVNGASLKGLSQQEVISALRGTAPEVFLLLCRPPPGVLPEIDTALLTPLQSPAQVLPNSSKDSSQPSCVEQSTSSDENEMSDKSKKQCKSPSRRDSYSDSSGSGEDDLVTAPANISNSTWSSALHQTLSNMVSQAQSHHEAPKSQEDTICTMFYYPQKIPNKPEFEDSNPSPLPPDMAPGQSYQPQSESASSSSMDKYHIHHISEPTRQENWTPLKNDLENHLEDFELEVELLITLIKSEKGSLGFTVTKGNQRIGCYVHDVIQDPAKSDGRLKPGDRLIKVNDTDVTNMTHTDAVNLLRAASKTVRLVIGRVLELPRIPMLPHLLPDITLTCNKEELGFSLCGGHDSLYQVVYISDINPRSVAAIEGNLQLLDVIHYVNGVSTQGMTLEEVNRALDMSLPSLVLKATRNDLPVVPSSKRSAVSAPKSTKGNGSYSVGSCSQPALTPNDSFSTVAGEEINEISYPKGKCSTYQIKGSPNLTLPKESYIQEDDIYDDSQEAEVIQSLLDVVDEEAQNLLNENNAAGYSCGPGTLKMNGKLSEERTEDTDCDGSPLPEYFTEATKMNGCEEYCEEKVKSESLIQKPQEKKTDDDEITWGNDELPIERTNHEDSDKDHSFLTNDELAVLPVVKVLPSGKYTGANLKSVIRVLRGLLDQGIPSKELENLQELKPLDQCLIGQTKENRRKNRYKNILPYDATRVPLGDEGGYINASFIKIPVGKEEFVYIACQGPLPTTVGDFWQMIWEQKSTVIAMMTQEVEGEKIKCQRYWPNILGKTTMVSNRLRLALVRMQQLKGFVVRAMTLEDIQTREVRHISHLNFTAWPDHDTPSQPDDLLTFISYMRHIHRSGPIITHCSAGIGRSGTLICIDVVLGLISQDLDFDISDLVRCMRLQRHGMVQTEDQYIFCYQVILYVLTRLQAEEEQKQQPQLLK

This test concerns the target HA-TurboID-KRAS G12V (human) (UniProt P01116). The test is described as follows: proximity labelling; HA-TurboID-KRAS (WT, G12C, G12D, G12V) stably expressed in HEK293T; 50 μM biotin for 2 h (tag-only control 0.5 h); biotinylated proteins captured on NeutrAvidin agarose (14 h, 4 °C), SDS-PAGE, in-gel trypsin digestion, LC-MS/MS; hits: peptide count ≥ 2 and found only in the KRAS group or fold change ≥ 2 against HA-TurboID tag-only; mutants against WT: FC ≥ 2 increased, FC ≤ 0.5 decreased.

No constants are given. Whether binding was seen depends on the method and setting. In cells and extracts the contact can be indirect. These calls come from enrichment with a bait or labelling near it, and not all partners need be listed.

Consider PTPN13 (from UniProt Q12923 1-2485), for which the binding entry is reported as “binds”.
